According to publication PMC8833744, “Strategic Decoy Peptides Interfere with MSI1/AGO2 Interaction to Elicit Tumor Suppression Effects” (Cancers, 2022):
No constants are given. Whether binding was seen depends on the method and setting. In cells and extracts the contact can be indirect. Some entries that bind do so weakly or less than the wild type.

By UniProt entry, the sequences of proteins in these tests, tags left out.
UniProt Q9UKV8: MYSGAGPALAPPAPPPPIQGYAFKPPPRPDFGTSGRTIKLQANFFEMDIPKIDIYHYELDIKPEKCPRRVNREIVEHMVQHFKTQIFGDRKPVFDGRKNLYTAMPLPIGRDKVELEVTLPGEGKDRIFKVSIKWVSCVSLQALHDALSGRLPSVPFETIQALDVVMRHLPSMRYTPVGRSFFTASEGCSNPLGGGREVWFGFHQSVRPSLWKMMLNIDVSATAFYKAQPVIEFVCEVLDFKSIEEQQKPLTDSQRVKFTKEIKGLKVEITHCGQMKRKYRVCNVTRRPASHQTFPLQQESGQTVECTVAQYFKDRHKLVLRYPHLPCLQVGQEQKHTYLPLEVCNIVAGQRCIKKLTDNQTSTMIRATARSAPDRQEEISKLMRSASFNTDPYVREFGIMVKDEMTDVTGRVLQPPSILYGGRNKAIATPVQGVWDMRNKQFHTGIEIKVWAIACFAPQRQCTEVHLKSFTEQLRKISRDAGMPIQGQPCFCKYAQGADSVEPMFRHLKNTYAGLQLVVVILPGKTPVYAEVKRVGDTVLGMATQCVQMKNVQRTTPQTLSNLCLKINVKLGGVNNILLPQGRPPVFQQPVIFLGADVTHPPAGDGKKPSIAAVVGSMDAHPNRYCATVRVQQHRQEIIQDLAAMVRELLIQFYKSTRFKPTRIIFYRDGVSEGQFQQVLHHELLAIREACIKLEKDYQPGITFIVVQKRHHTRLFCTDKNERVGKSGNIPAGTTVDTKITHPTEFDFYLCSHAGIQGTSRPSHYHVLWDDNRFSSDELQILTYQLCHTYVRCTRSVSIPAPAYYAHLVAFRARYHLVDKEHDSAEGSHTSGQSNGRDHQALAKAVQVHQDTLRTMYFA
UniProt O43347: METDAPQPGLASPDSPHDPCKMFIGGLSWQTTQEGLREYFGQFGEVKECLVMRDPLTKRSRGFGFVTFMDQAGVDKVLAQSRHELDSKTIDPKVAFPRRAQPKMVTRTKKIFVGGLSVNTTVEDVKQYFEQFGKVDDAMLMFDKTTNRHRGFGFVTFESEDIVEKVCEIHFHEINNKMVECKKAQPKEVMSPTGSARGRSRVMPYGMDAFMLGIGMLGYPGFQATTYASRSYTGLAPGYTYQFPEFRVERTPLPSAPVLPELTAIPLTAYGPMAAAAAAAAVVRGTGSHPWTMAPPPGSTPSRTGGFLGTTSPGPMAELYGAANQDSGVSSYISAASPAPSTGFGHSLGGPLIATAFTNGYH

Biological target: AGO2 fused to the C-terminal fragment of Gaussia luciferase (A-CGluc) (UniProt Q9UKV8)
Assay: split reporter; split Gaussia luciferase reconstitution, M-NGluc and A-CGluc in DBTRG-05MG stable cells; PBS-treated (no cisplatin); luminescence by IVIS

With “MSI1 fused to the N-terminal fragment of Gaussia luciferase (M-NGluc) (from UniProt O43347 1-362)” the binding was “binds weakly”.
